Laboratory results published in doi:10.1101/786475.
These are yes or no findings as the source states them, for the method shown. For some of these results: Binding seen in cells or lysates may run through a third protein. Some binding calls cover weakened binding; strength is not graded here. Tags and fused reporters may be left off the sequences shown.

Protein sequences, listed by entry. Tags and fused reporters are not part of them.
UniProt P53035: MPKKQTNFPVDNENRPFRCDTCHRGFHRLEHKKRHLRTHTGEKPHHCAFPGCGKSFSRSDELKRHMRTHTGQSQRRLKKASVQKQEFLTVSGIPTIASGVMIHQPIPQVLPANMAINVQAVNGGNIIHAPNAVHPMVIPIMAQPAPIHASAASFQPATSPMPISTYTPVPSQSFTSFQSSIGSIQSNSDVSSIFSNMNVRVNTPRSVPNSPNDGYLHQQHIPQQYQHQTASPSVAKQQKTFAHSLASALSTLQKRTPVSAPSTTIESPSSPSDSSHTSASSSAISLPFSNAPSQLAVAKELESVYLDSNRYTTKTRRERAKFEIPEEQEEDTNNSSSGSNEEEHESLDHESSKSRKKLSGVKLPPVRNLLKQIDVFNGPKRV
UniProt P27705: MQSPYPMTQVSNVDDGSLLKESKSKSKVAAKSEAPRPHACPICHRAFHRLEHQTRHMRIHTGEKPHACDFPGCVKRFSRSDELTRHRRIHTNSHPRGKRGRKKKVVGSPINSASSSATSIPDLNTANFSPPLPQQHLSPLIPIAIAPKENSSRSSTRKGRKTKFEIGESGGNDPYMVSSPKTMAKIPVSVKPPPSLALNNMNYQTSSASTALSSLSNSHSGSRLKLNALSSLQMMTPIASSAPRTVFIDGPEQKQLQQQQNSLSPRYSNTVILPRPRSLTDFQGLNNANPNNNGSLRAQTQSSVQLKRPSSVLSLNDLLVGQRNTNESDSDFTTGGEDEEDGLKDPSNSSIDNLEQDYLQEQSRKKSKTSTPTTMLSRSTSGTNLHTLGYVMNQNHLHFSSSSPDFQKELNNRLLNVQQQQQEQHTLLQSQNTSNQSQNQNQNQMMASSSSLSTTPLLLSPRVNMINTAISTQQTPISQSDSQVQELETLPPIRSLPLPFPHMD

Key:
[1] = target: T1, Mam33p (spotted on the yeast ProtoArray) (S. cerevisiae) (UniProt P40513); experiment: peptide or protein array
T1 sequence: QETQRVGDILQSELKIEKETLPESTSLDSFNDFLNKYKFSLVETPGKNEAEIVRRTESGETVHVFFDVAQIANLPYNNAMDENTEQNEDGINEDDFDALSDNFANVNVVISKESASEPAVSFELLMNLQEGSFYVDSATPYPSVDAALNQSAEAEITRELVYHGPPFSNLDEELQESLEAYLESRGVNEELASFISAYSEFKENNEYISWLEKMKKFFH

[2] = target: T2, Bem1p (spotted on the yeast ProtoArray) (S. cerevisiae) (UniProt P29366); experiment: peptide or protein array
T2 sequence: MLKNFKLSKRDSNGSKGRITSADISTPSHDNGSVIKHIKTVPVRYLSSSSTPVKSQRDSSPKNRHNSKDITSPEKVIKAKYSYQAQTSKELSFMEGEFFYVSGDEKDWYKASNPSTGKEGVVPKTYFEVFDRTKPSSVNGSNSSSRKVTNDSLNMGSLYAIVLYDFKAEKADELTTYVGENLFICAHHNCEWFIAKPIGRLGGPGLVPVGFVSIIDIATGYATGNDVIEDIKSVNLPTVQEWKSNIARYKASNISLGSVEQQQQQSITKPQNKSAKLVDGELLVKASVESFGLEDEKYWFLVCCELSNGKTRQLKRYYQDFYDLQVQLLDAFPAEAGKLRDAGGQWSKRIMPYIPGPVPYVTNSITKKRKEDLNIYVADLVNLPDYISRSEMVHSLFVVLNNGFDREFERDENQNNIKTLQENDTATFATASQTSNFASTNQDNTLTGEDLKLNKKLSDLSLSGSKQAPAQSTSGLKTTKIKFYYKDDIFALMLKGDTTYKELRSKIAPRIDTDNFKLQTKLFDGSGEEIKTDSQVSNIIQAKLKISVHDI

[3] = target: Mig2p (spotted on the yeast ProtoArray) (S. cerevisiae) (UniProt P53035); experiment: peptide or protein array
[4] = target: T3, Hri1p (spotted on the yeast ProtoArray) (S. cerevisiae) (UniProt Q05905); experiment: peptide or protein array
T3 sequence: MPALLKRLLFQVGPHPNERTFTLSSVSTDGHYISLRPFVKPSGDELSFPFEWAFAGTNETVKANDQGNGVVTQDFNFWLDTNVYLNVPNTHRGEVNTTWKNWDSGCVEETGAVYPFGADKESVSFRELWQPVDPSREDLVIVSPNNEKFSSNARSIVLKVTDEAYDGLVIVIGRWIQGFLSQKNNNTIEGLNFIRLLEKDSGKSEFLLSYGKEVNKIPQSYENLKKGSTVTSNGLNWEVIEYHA

[5] = target: Mig1p (spotted on the yeast ProtoArray) (S. cerevisiae) (UniProt P27705); experiment: peptide or protein array
[6] = target: T4, HIS-Msb2p^CYT immobilised on Talon beads (S. cerevisiae) (UniProt P32334); experiment: pull-down
T4 sequence: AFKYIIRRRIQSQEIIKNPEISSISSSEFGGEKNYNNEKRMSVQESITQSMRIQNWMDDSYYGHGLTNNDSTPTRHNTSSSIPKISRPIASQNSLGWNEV

B1: purified and biotinylated cytoplasmic domain of the Msb2p protein (HIS-Msb2p^CYT) (domain or fragment, UniProt P32334 1207-1306)
chain: AFKYIIRRRIQSQEIIKNPEISSISSSEFGGEKNYNNEKRMSVQESITQSMRIQNWMDDSYYGHGLTNNDSTPTRHNTSSSIPKISRPIASQNSLGWNEV
modifications: biotinylated in vitro (sites not given)
binding [1]: binds | binding [2]: no binding | binding [3]: no binding | binding [4]: binds | binding [5]: no binding

B2: Cap2p-TAP (protein, UniProt P13517 1-287)
chain: MSDAQFDAALDLLRRLNPTTLQENLNNLIELQPNLAQDLLSSVDVPLSTQKDSADSNREYLCCDYNRDIDSFRSPWSNTYYPELSPKDLQDSPFPSAPLRKLEILANDSFDVYRDLYYEGGISSVYLWDLNEEDFNGHDFAGVVLFKKNQSDHSNWDSIHVFEVTTSPSSPDSFNYRVTTTIILHLDKTKTDQNSHMMLSGNLTRQTEKDIAIDMSRPLDVIFTSHVANLGSLIEDIESQMRNLLETVYFEKTRDIFHQTKNAAIASSAEEANKDAQAEVIRGLQSL
binding [6]: binds

B3: Gln1p-GFP (enzyme, UniProt P32288 1-370)
chain: MAEASIEKTQILQKYLELDQRGRIIAEYVWIDGTGNLRSKGRTLKKRITSIDQLPEWNFDGSSTNQAPGHDSDIYLKPVAYYPDPFRRGDNIVVLAACYNNDGTPNKFNHRHEAAKLFAAHKDEEIWFGLEQEYTLFDMYDDVYGWPKGGYPAPQGPYYCGVGAGKVYARDMIEAHYRACLYAGLEISGINAEVMPSQWEFQVGPCTGIDMGDQLWMARYFLHRVAEEFGIKISFHPKPLKGDWNGAGCHTNVSTKEMRQPGGMKYIEQAIEKLSKRHAEHIKLYGSDNDMRLTGRHETASMTAFSSGVANRGSSIRIPRSVAKEGYGYFEDRRPASNIDPYLVTGIMCETVCGAIDNADMTKEFERESS
binding [6]: binds
